PubChem BioAssay AID1224830, NIAID – 2016
Test: 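Genes whose knock-down alters the TNF-alpha reporter response to LPS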 (primary screen). Cells: human THP-1 monocytic leukaemia cells, TNF dual-luciferase reporter clone, PMA-differentiated to macrophage-like cells. Knock-down reagent: siRNA pool against human genes, 50 nM. Duration: LPS for 4 h, given about 3 days after siRNA transfection. Challenge: bacterial LPS (TLR4 ligand), 10 ng/ml. Measured: 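Ratio of firefly to renilla light, scaled to the plate median and expressed as a robust z-score per replicate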. Scale: TNF reporter robust z-score: higher = stronger TNF reporter response to LPS. Rule for the call: 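Each well counts as active if its z-score is over 2.8 or under -1.5; controls are left without a call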.
This is one part, drawn at random, of about 18,000 deposited reagents. Over the whole deposit, about 2,900 (16%) are marked active. 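Calls are made per well; low scores hint the gene aids the LPS response, high scores that it dampens it.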 Entries without a mark were called inactive. Repeated entries: four replicate wells of each siRNA pool.

| gene | TNF reporter robust z-score |
| --- | --- |
| GINS3 (GeneID 64785) | -0.62 |
| GINS3 (GeneID 64785) | 0.41 |
| GINS3 (GeneID 64785) | -0.02 |
| GINS3 (GeneID 64785) | -0.61 |
| EPN2 (GeneID 22905) | 3.02 (active) |
| EPN2 (GeneID 22905) | 1.72 |
| EPN2 (GeneID 22905) | -0.07 |
| EPN2 (GeneID 22905) | 0.3 |
| PLCXD1 (GeneID 55344) | -0.48 |
| PLCXD1 (GeneID 55344) | 0.12 |
| PLCXD1 (GeneID 55344) | -0.81 |
| PLCXD1 (GeneID 55344) | -0.35 |
| C14orf181 (retired record) (GeneID 400223) | 0.37 |
| C14orf181 (retired record) (GeneID 400223) | -1.14 |
| C14orf181 (retired record) (GeneID 400223) | -0.69 |
| C14orf181 (retired record) (GeneID 400223) | 1 |
| ZNF785 (GeneID 146540) | -0.82 |
| ZNF785 (GeneID 146540) | -0.89 |
| ZNF785 (GeneID 146540) | -0.37 |
| ZNF785 (GeneID 146540) | -0.4 |
| DENND10 (GeneID 404636) | 0.57 |
| DENND10 (GeneID 404636) | 1.29 |
| DENND10 (GeneID 404636) | 1.26 |
| DENND10 (GeneID 404636) | 2.02 |
| PSG8 (GeneID 440533) | -0.84 |
| PSG8 (GeneID 440533) | -0.23 |
| PSG8 (GeneID 440533) | -0.33 |
| PSG8 (GeneID 440533) | -0.52 |
| ACP5 (GeneID 54) | -0.43 |
| ACP5 (GeneID 54) | -0.03 |
| ACP5 (GeneID 54) | -0.07 |
| ACP5 (GeneID 54) | -0.55 |
| DIDO1 (GeneID 11083) | 0.58 |
| DIDO1 (GeneID 11083) | 1 |
| DIDO1 (GeneID 11083) | 0.14 |
| DIDO1 (GeneID 11083) | 0.13 |
| MRPS15 (GeneID 64960) | 1.8 |
| MRPS15 (GeneID 64960) | 0.95 |
| MRPS15 (GeneID 64960) | 3.08 (active) |
| MRPS15 (GeneID 64960) | 1.21 |
| PIAS1 (GeneID 8554) | -0.48 |
| PIAS1 (GeneID 8554) | 1.32 |
| PIAS1 (GeneID 8554) | -0.03 |
| PIAS1 (GeneID 8554) | 0.14 |
| LIF (GeneID 3976) | -0.27 |
| LIF (GeneID 3976) | -0.12 |
| LIF (GeneID 3976) | -0.68 |
| LIF (GeneID 3976) | -0.17 |
| DDTL (GeneID 100037417) | 1.44 |
| DDTL (GeneID 100037417) | -0.22 |
| DDTL (GeneID 100037417) | -0.07 |
| DDTL (GeneID 100037417) | 0.89 |
| BMP2 (GeneID 650) | 1.43 |
| BMP2 (GeneID 650) | 1.78 |
| BMP2 (GeneID 650) | 1.56 |
| BMP2 (GeneID 650) | 2.33 |
| DAZ1 (GeneID 1617) | -0.77 |
| DAZ1 (GeneID 1617) | -0.1 |
| DAZ1 (GeneID 1617) | 0.32 |
| DAZ1 (GeneID 1617) | -0.45 |
| GUCY2D (GeneID 3000) | -0.42 |
| GUCY2D (GeneID 3000) | -1.33 |
| GUCY2D (GeneID 3000) | -0.41 |
| GUCY2D (GeneID 3000) | -0.8 |
| GINM1 (GeneID 116254) | -0.91 |
| GINM1 (GeneID 116254) | -0.31 |
| GINM1 (GeneID 116254) | 0.32 |
| GINM1 (GeneID 116254) | 0.69 |
| FZD3 (GeneID 7976) | 2.43 |
| FZD3 (GeneID 7976) | 1.8 |
| FZD3 (GeneID 7976) | 2.38 |
| FZD3 (GeneID 7976) | 2.2 |
| CDS2 (GeneID 8760) | 0.66 |
| CDS2 (GeneID 8760) | 1.01 |
| CDS2 (GeneID 8760) | 1.33 |
| CDS2 (GeneID 8760) | 0.97 |
| CHRNA9 (GeneID 55584) | 0.1 |
| CHRNA9 (GeneID 55584) | -0.93 |
| CHRNA9 (GeneID 55584) | 0.15 |
| CHRNA9 (GeneID 55584) | 0.22 |
| IVNS1ABP (GeneID 10625) | 0.44 |
| IVNS1ABP (GeneID 10625) | -0.26 |
| IVNS1ABP (GeneID 10625) | -0.13 |
| IVNS1ABP (GeneID 10625) | -0.27 |
| ABHD8 (GeneID 79575) | 0.8 |
| ABHD8 (GeneID 79575) | 0.45 |
| ABHD8 (GeneID 79575) | -0.06 |
| CNPPD1 (GeneID 27013) | -0.55 |
| CNPPD1 (GeneID 27013) | 0.27 |
| CNPPD1 (GeneID 27013) | -0.84 |
| CNPPD1 (GeneID 27013) | 0.62 |
| MEAF6 (GeneID 64769) | 0.2 |
| MEAF6 (GeneID 64769) | 1.22 |
| MEAF6 (GeneID 64769) | 1.76 |
| MEAF6 (GeneID 64769) | -0.19 |
| MYOM1 (GeneID 8736) | 0.41 |
| MYOM1 (GeneID 8736) | -0.22 |
| MYOM1 (GeneID 8736) | 0.22 |
| MYOM1 (GeneID 8736) | -0.03 |
| CNBD1 (GeneID 168975) | 1.06 |
| CNBD1 (GeneID 168975) | 0.56 |
| CNBD1 (GeneID 168975) | 0.25 |
| CNBD1 (GeneID 168975) | 0.72 |
| ALG12 (GeneID 79087) | 1.57 |
| ALG12 (GeneID 79087) | 0.64 |
| ALG12 (GeneID 79087) | -0.04 |
| ALG12 (GeneID 79087) | 1.73 |
| ABCD4 (GeneID 5826) | -0.22 |
| ABCD4 (GeneID 5826) | -0.17 |
| ABCD4 (GeneID 5826) | -0.05 |
| ABCD4 (GeneID 5826) | -0.21 |
| AKNA (GeneID 80709) | -0.3 |
| AKNA (GeneID 80709) | -0.04 |
| AKNA (GeneID 80709) | 0.26 |
| AKNA (GeneID 80709) | -0.24 |
| KPNA3 (GeneID 3839) | -0.72 |
| KPNA3 (GeneID 3839) | -0.32 |
| KPNA3 (GeneID 3839) | -0.26 |
| SLC38A6 (GeneID 145389) | -0.93 |
| SLC38A6 (GeneID 145389) | -0.86 |
| SLC38A6 (GeneID 145389) | -0.57 |
| SLC38A6 (GeneID 145389) | -0.51 |
| RRP15 (GeneID 51018) | 0.11 |
| RRP15 (GeneID 51018) | 1.3 |
| RRP15 (GeneID 51018) | 0.8 |
| RRP15 (GeneID 51018) | 1.48 |
| OTUD6A (GeneID 139562) | -1.23 |
| OTUD6A (GeneID 139562) | -1.51 (active) |
| OTUD6A (GeneID 139562) | -1.29 |
| OTUD6A (GeneID 139562) | -1.45 |
| ZNF821 (GeneID 55565) | 0.59 |
| ZNF821 (GeneID 55565) | 0.25 |
| ZNF821 (GeneID 55565) | -0.03 |
| ZNF821 (GeneID 55565) | 0.51 |
| ZNF319 (GeneID 57567) | -1.73 (active) |
| ZNF319 (GeneID 57567) | -1.53 (active) |
| ZNF319 (GeneID 57567) | -1.59 (active) |
| ZNF319 (GeneID 57567) | -1.68 (active) |
| PXMP2 (GeneID 5827) | -0.99 |
| PXMP2 (GeneID 5827) | -1.46 |
| PXMP2 (GeneID 5827) | -0.73 |
| PXMP2 (GeneID 5827) | -1.01 |

Reagents listed so far called active, once more:
| gene | TNF reporter robust z-score |
| --- | --- |
| EPN2 (GeneID 22905) | 3.02 (active) |
| MRPS15 (GeneID 64960) | 3.08 (active) |
| OTUD6A (GeneID 139562) | -1.51 (active) |
| ZNF319 (GeneID 57567) | -1.73 (active) |
| ZNF319 (GeneID 57567) | -1.53 (active) |
| ZNF319 (GeneID 57567) | -1.59 (active) |
| ZNF319 (GeneID 57567) | -1.68 (active) |
